# PubChem BioAssay AID504793 – Drosophila RNAi Screening Center | 2011
# Screen: 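Whole-genome screen for parts of the DNA damage checkpoint at G2/M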 (primary screen)
# Cell system: Drosophila S2R+ cells
# Reagents: long dsRNA against Drosophila genes, about 0.25 µg dsRNA per well
# Time to read-out: 4 days of dsRNA, then 4 hours of drug before read-out
# Conditions: doxorubicin 0.5 µM for 4 hours to cause double-strand breaks, in cells also given a low, harmless dose of dsRNA against nbs to sensitise the assay
# Read-out: 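Per-well count of mitotic cells stained for phospho-histone H3 after doxorubicin exposure, used as mitotic index; counts are raw and not normalised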
# Scale: mitotic cells: higher = more cells in mitosis, weaker G2 arrest
# Call rule: 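a call needs confirmation in secondary tests, with other dsRNAs and a check of mitotic timing without damage, not just a high primary count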
# Meaning of the calls: active = confirmed in follow-up tests; inactive = not confirmed
# In all, the deposit lists about 23,000 reagents; this is an unselected part of those that have a named target and a result. Of all reagents, 62 (0.27%) were called active. 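Calls come from follow-up tests whose scores are not deposited, so confirmed genes may have low counts here; counts are not normalised per plate.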 The raw values are shown without normalisation. The numbers tell different reagents against one gene apart. A plus sign joins genes that one reagent is predicted to hit.
Target gene,reagent no.,"mitotic cells, replicate 1",Outcome
Zif,1,7,inactive
GATAd,1,7,inactive
CG18249,1,7,inactive
ttk,1,5,inactive
ttk,2,33,inactive
ttk,3,14,inactive
CG14565,1,4,inactive
CG14565,2,3,inactive
BOD1,1,12,inactive
BOD1,2,6,inactive
CG15111,1,6,inactive
CG13708,1,8,inactive
CG31674,1,11,inactive
CG31674,2,8,inactive
Nse1,1,9,inactive
Lam,1,8,inactive
Lam,2,3,inactive
CG32554,1,11,inactive
CG32554,2,8,inactive
CG14191,1,7,inactive
CG14191,2,7,inactive
Grip163,1,42,inactive
Grip163,2,23,inactive
CG42258,1,8,inactive
CG42258,2,14,inactive
CG42258,3,9,inactive
CG42258,4,3,inactive
CG14932,1,5,inactive
CG14932,2,3,inactive
mod(mdg4),1,23,inactive
mod(mdg4),2,5,inactive
mod(mdg4),3,19,inactive
CG5708,1,3,inactive
NimB2,1,11,inactive
flr,1,6,inactive
Arp1,1,23,inactive
Arp1,2,10,inactive
CG30016,1,8,inactive
shep,1,3,inactive
shep,2,9,inactive
shep,3,10,inactive
CG9961,1,6,inactive
CG9961,2,8,inactive
mRpS11,1,4,inactive
CG3565,1,1,inactive
CG9582,1,7,inactive
Amnionless,1,,inactive
SmB,1,6,inactive
SmB,2,1,inactive
RNaseZ,1,6,inactive
CG17672,1,12,inactive
CG17672,2,6,inactive
CG2120,1,8,inactive
CG2120,2,7,inactive
x16,1,9,inactive
x16,2,6,inactive
x16,3,3,inactive
CG12523,1,8,inactive
CG12523,2,3,inactive
Vha16-5,1,3,inactive
CG6628,1,4,inactive
wds,1,45,active
CG13314,1,4,inactive
Cyt-c1,1,7,inactive
Cyt-c1,2,10,inactive
CG18063,1,8,inactive
CG33287,1,12,inactive
CG31797,1,9,inactive
CG31797,2,3,inactive
Peritrophin-A,1,4,inactive
Atac3,1,2,inactive
AhcyL2,1,4,inactive
lncRNA:Hsromega,1,15,inactive
lncRNA:Hsromega,2,6,inactive
SelR,1,7,inactive
Rab9Db + Rab9D + Rab9E,1,3,inactive
Ggamma30A + borr,1,4,inactive
Pka-R1,1,5,inactive
Pka-R1,2,4,inactive
Pka-R1,3,6,inactive
CG7227,1,4,inactive
AANATL2,1,2,inactive
AANATL2,2,1,inactive
CG33158,1,12,inactive
CG33158,2,9,inactive
CG33158,3,4,inactive
CG18605,1,7,inactive
CG18605,2,13,inactive
Tssk,1,9,inactive
Tssk,2,9,inactive
Dph2,1,5,inactive
Dph2,2,7,inactive
CG1537,1,5,inactive
TTLL12,1,7,inactive
CG11679,1,11,inactive
Slh,1,8,inactive
Trpgamma,1,4,inactive
insc,1,7,inactive
CG9686,1,9,inactive
CG9686,2,4,inactive
Mst36Fb,1,1,inactive
Gbp2,1,3,inactive
Gpxl,1,12,inactive
RpL38,1,9,inactive
CG13674,1,5,inactive
CG13674,2,7,inactive
rpr,1,6,inactive
tral,1,8,inactive
tral,2,6,inactive
Dysb,1,7,inactive
